Results are given in words; binding and its absence hold for the method and conditions named. For some of these results: In cells and extracts the contact can be indirect. Some results given as binding are weak or reduced against the parent protein; the word gives no strength. Sequences can lack the tags named with a protein.
B1: Myc-HK2 protein (OriGene) (enzyme, UniProt P52789 1-917)
chain: MIASHLLAYFFTELNHDQVQKVDQYLYHMRLSDETLLEISKRFRKEMEKGLGATTHPTAAVKMLPTFVRSTPDGTEHGEFLALDLGGTNFRVLWVKVTDNGLQKVEMENQIYAIPEDIMRGSGTQLFDHIAECLANFMDKLQIKDKKLPLGFTFSFPCHQTKLDESFLVSWTKGFKSSGVEGRDVVALIRKAIQRRGDFDIDIVAVVNDTVGTMMTCGYDDHNCEIGLIVGTGSNACYMEEMRHIDMVEGDEGRMCINMEWGAFGDDGSLNDIRTEFDQEIDMGSLNPGKQLFEKMISGMYMGELVRLILVKMAKEELLFGGKLSPELLNTGRFETKDISDIEGEKDGIRKAREVLMRLGLDPTQEDCVATHRICQIVSTRSASLCAATLAAVLQRIKENKGEERLRSTIGVDGSVYKKHPHFAKRLHKTVRRLVPGCDVRFLRSEDGSGKGAAMVTAVAYRLADQHRARQKTLEHLQLSHDQLLEVKRRMKVEMERGLSKETHASAPVKMLPTYVCATPDGTEKGDFLALDLGGTNFRVLLVRVRNGKWGGVEMHNKIYAIPQEVMHGTGDELFDHIVQCIADFLEYMGMKGVSLPLGFTFSFPCQQNSLDESILLKWTKGFKASGCEGEDVVTLLKEAIHRREEFDLDVVAVVNDTVGTMMTCGFEDPHCEVGLIVGTGSNACYMEEMRNVELVEGEEGRMCVNMEWGAFGDNGCLDDFRTEFDVAVDELSLNPGKQRFEKMISGMYLGEIVRNILIDFTKRGLLFRGRISERLKTRGIFETKFLSQIESDCLALLQVRAILQHLGLESTCDDSIIVKEVCTVVARRAAQLCGAGMAAVVDRIRENRGLDALKVTVGVDGTLYKLHPHFAKVMHETVKDLAPKCDVSFLQSEDGSGKGAALITAVACRIREAGQR
B2: HA-tagged HK2 (HK2-HA), wild type, in HEK293 cells (enzyme, UniProt P27881 1-917)
chain: MIASHMIACLFTELNQNQVQKVDQFLYHMRLSDETLLEISRRFRKEMEKGLGATTHPTAAVKMLPTFVRSTPDGTEHGEFLALDLGGTNFRVLRVRVTDNGLQRVEMENQIYAIPEDIMRGSGTQLFDHIAECLANFMDKLQIKEKKLPLGFTFSFPCHQTKLDESFLVSWTKGFKSSGVEGRDVVDLIRKAIQRRGDFDIDIVAVVNDTVGTMMTCGYDDQNCEIGLIVGTGSNACYMEEMRHIDMVEGDEGRMCINMEWGAFGDDGTLNDIRTEFDREIDMGSLNPGKQLFEKMISGMYMGELVRLILVKMAKAELLFQGKLSPELLTTGSFETKDVSDIEEDKDGIEKAYQILMRLGLNPLQEDCVATHRICQIVSTRSASLCAATLAAVLWRIKENKGEERLRSTIGVDGSVYKKHPHFAKRLHKAVRRLVPDCDVRFLRSEDGSGKGAAMVTAVAYRLADQHRARQKTLESLKLSHEQLLEVKRRMKVEMEQGLSKETHAVAPVKMLPTYVCATPDGTEKGDFLALDLGGTNFRVLLVRVRNGKRRGVEMHNKIYSIPQEVMHGTGEELFDHIVQCIADFLEYMGMKGVSLPLGFTFSFPCQQNSLDQSILLKWTKGFKASGCEGEDVVTLLKEAIHRREEFDLDVVAVVNDTVGTMMTCGYEDPHCEVGLIVGTGSNACYMEEMRNVELVDGEEGRMCVNMEWGAFGDNGCLDDLRTVFDVAVDELSLNPGKQRFEKMISGMYLGEIVRNILIDFTKRGLLFRGRISERLKTRGIFETKFLSQIESDCLALLQVRAILRHLGLESTCDDSIIVKEVCTVVARRAAQLCGAGMAAVVDKIRENRGLDNLKVTVGVDGTLYKLHPHFAKVMHETVRDLAPKCDVSFLESEDGSGKGAALITAVACRIREAGQR

Protein sequences, listed by entry. Tags and fused reporters are not part of them.
UniProt P49841: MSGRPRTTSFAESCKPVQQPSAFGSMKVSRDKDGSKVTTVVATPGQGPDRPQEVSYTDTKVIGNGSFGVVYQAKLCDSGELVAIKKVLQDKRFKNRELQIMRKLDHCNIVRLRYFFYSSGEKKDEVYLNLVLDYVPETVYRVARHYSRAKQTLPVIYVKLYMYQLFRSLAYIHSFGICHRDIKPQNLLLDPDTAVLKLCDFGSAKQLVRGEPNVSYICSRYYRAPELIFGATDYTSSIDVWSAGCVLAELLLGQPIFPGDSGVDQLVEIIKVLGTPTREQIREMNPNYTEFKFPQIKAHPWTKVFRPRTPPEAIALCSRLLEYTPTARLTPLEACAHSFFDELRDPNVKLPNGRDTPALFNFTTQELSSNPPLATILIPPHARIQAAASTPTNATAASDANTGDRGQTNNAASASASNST
UniProt P10644: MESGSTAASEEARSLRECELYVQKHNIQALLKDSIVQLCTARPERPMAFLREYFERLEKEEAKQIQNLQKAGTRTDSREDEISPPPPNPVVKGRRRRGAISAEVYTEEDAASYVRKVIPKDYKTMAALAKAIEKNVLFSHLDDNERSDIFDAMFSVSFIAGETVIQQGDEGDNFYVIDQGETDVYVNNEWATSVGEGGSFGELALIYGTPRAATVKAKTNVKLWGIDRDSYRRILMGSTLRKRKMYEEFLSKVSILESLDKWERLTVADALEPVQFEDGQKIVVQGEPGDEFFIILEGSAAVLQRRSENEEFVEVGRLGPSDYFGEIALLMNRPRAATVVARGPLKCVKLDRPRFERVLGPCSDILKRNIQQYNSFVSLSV

Key:
GST-GSK3b (Abcam) = GST-GSK3b (Abcam) (UniProt P49841); test: ELISA
[1] = target: His-PRKAR1a (Sino Biological) (UniProt P10644); test: ELISA
[2] = target: myc-GSK3β wild type in HEK293 cells (human) (UniProt P49841); test: co-IP
[3] = target: myc-tagged PRKAR1a in HEK293 cells (human) (UniProt P10644); test: co-IP

Row | Binder | binding (GST-GSK3b (Abcam)) | binding [1] | binding [2] | binding [3]
1 | B1 | binds | binds | – | –
2 | B2 | – | – | binds | binds
